{
  "source": "the supplement of paper PMC8728848",
  "binders": {"B1": {"name": "AT3G44510(29) (Arabidopsis thaliana), F4J341 (protein)", "chain": "MEEHLQGRIKLHDGRYLAYKERGVPKDDAKFTIVLVHGFGSSKDMNFNVSQELVNEIGIYFVLYDRAGYGESDPNPKRSLKSEAYDVQELADGLEIGSRFYLIGISMGSYTVWSCLKHIPQRLAGVAMVAPVVNFRWPSIPKSLMPKDYRREVAKWSVWIANYFPGLLQWLVTQNMFSTTSMLEKNPVYFNDQDIEVLKHIKGFPMLTKEKLRERGVFGTLRSDFLVAFGDWDFDPADLPDPSLSGPEKGSSSVHIWQGYEDKVMPFQLQRCLCRKLPWIRYHEVPKGGHLIVHYDGICDAILKSLLLGEDLPMYKPKAVITEPA"}},
  "assay_in_all_cases": "glycan array binding signal (z-score within array); higher = stronger binding",
  "settings_in_all_cases": "glycan notation: IUPAC condensed, linker removed",
  "key": {"[1]": {"molecular_target": "Gal(b1-3)GlcNAc(b1-2)Man(a1-3)[Gal(b1-3)GlcNAc(b1-2)Man(a1-6)]Man(b1-4)GlcNAc(b1-4)GlcNAc", "how_it_was_run": "(§1)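 Glycan array binding is given as a within-array Z-score, which can be read as non-binding when negative. The arrays, 3228 of them, came from the Consortium for Functional Glycomics database and were retained only where the protein sequence was available. Z-scores were averaged across arrays of the same protein sequence at different concentrations or buffers and across linkers.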"}, "[2]": {"molecular_target": "Gal(b1-3)GlcNAc(b1-2)Man(a1-3)[Gal(b1-3)GlcNAc(b1-2)Man(a1-6)]Man(b1-4)GlcNAc(b1-4)[Fuc(a1-6)]GlcNAc", "how_it_was_run": "as §1"}, "[3]": {"molecular_target": "Gal(b1-3)GlcNAc(b1-2)Man(a1-3)[GlcNAc(b1-4)][Gal(b1-3)GlcNAc(b1-2)Man(a1-6)]Man(b1-4)GlcNAc(b1-4)GlcNAc", "how_it_was_run": "as §1"}, "[4]": {"molecular_target": "Gal(b1-3)GlcNAc(b1-2)[Gal(b1-3)GlcNAc(b1-6)]Man(a1-6)[Gal(b1-3)GlcNAc(b1-2)Man(a1-3)]Man(b1-4)GlcNAc(b1-4)GlcNAc", "how_it_was_run": "as §1"}, "[5]": {"molecular_target": "Gal(b1-3)GlcNAc(b1-3)Gal(b1-3)GlcNAc", "how_it_was_run": "as §1"}, "[6]": {"molecular_target": "Gal(b1-3)GlcNAc(b1-3)Gal(b1-4)Glc", "how_it_was_run": "as §1"}, "[7]": {"molecular_target": "Gal(b1-3)GlcNAc(b1-3)Gal(b1-4)GlcNAc", "how_it_was_run": "as §1"}, "[8]": {"molecular_target": "Gal(b1-3)GlcNAc(b1-3)Gal(b1-4)GlcNAc(b1-2)Man(a1-3)[Gal(b1-3)GlcNAc(b1-3)Gal(b1-4)GlcNAc(b1-2)Man(a1-6)]Man(b1-4)GlcNAc(b1-4)GlcNAc", "how_it_was_run": "as §1"}, "[9]": {"molecular_target": "Gal(b1-3)GlcNAc(b1-3)Gal(b1-4)GlcNAc(b1-2)[Gal(b1-3)GlcNAc(b1-3)Gal(b1-4)GlcNAc(b1-6)]Man(a1-6)[Gal(b1-3)GlcNAc(b1-3)Gal(b1-4)GlcNAc(b1-2)Man(a1-3)]Man(b1-4)GlcNAc(b1-4)[Fuc(a1-6)]GlcNAc", "how_it_was_run": "as §1"}, "[10]": {"molecular_target": "Gal(b1-3)GlcNAc(b1-3)Gal(b1-4)GlcNAc(b1-3)Gal(b1-4)GlcNAc(b1-2)[Gal(b1-3)GlcNAc(b1-3)Gal(b1-4)GlcNAc(b1-3)Gal(b1-4)GlcNAc(b1-6)]Man(a1-6)[Gal(b1-3)GlcNAc(b1-3)Gal(b1-4)GlcNAc(b1-3)Gal(b1-4)GlcNAc(b1-2)Man(a1-3)]Man(b1-4)GlcNAc(b1-4)[Fuc(a1-6)]GlcNAc", "how_it_was_run": "as §1"}, "[11]": {"molecular_target": "Gal(b1-3)GlcNAc(b1-3)Gal(b1-4)GlcNAc(b1-6)[Gal(b1-3)GlcNAc(b1-3)]Gal(b1-4)Glc", "how_it_was_run": "as §1"}, "[12]": {"molecular_target": "Gal(b1-3)GlcNAc(b1-3)Gal(b1-4)[Fuc(a1-3)]GlcNAc", "how_it_was_run": "as §1"}, "[13]": {"molecular_target": "Gal(b1-3)GlcNAc(b1-3)Gal(b1-4)[Fuc(a1-3)]GlcNAc(b1-6)[Gal(b1-3)GlcNAc(b1-3)]Gal(b1-4)Glc", "how_it_was_run": "as §1"}, "[14]": {"molecular_target": "Gal(b1-3)GlcNAc(b1-3)GalNAc", "how_it_was_run": "as §1"}, "[15]": {"molecular_target": "Gal(b1-3)GlcNAc(b1-6)Gal(b1-4)GlcNAc", "how_it_was_run": "as §1"}, "[16]": {"molecular_target": "Gal(b1-3)GlcNAc(b1-6)GalNAc", "how_it_was_run": "as §1"}, "[17]": {"molecular_target": "Gal(b1-3)GlcNAc(b1-6)[Gal(b1-3)]GalNAc", "how_it_was_run": "as §1"}, "Gal(b1-3)GlcNAc6S": {"molecular_target": "Gal(b1-3)GlcNAc6S", "how_it_was_run": "as §1"}, "[18]": {"molecular_target": "Gal(b1-3)[Fuc(a1-4)]GlcNAc", "how_it_was_run": "as §1"}, "[19]": {"molecular_target": "Gal(b1-3)[Fuc(a1-4)]GlcNAc(b1-2)Man", "how_it_was_run": "as §1"}, "[20]": {"molecular_target": "Gal(b1-3)[Fuc(a1-4)]GlcNAc(b1-2)Man(a1-3)[Gal(b1-3)[Fuc(a1-4)]GlcNAc(b1-2)Man(a1-6)]Man(b1-4)GlcNAc(b1-4)[Fuc(a1-6)]GlcNAc", "how_it_was_run": "as §1"}, "[21]": {"molecular_target": "Gal(b1-3)[Fuc(a1-4)]GlcNAc(b1-3)Gal(b1-3)[Fuc(a1-4)]GlcNAc", "how_it_was_run": "as §1"}, "[22]": {"molecular_target": "Gal(b1-3)[Fuc(a1-4)]GlcNAc(b1-3)Gal(b1-4)[Fuc(a1-3)]GlcNAc", "how_it_was_run": "as §1"}, "[23]": {"molecular_target": "Gal(b1-3)[Fuc(a1-4)]GlcNAc(b1-6)GalNAc", "how_it_was_run": "as §1"}, "[24]": {"molecular_target": "Gal(b1-3)[GlcNAc(b1-6)]GalNAc", "how_it_was_run": "as §1"}, "[25]": {"molecular_target": "Gal(b1-3)[Neu5Ac(a2-6)]GalNAc", "how_it_was_run": "as §1"}, "[26]": {"molecular_target": "Gal(b1-3)[Neu5Ac(a2-6)]GlcNAc(b1-4)Gal(b1-4)Glc", "how_it_was_run": "as §1"}, "[27]": {"molecular_target": "Gal(b1-3)[Neu5Ac(b2-6)]GalNAc", "how_it_was_run": "as §1"}, "Gal(b1-4)Gal": {"molecular_target": "Gal(b1-4)Gal", "how_it_was_run": "as §1"}, "[28]": {"molecular_target": "Gal(b1-4)GalNAc(a1-3)[Fuc(a1-2)]Gal(b1-4)GlcNAc", "how_it_was_run": "as §1"}, "[29]": {"molecular_target": "Gal(b1-4)GalNAc(b1-3)[Fuc(a1-2)]Gal(b1-4)GlcNAc", "how_it_was_run": "as §1"}, "Gal(b1-4)Glc": {"molecular_target": "Gal(b1-4)Glc", "how_it_was_run": "as §1"}, "Gal(b1-4)Glc6S": {"molecular_target": "Gal(b1-4)Glc6S", "how_it_was_run": "as §1"}, "Gal(b1-4)GlcNAc": {"molecular_target": "Gal(b1-4)GlcNAc", "how_it_was_run": "as §1"}, "[30]": {"molecular_target": "Gal(b1-4)GlcNAc(a1-6)Gal(b1-4)GlcNAc", "how_it_was_run": "as §1"}, "Gal(b1-4)GlcNAc(b1-2)Man": {"molecular_target": "Gal(b1-4)GlcNAc(b1-2)Man", "how_it_was_run": "as §1"}, "[31]": {"molecular_target": "Gal(b1-4)GlcNAc(b1-2)Man(a1-3)Man(b1-4)GlcNAc(b1-4)GlcNAc", "how_it_was_run": "as §1"}},
  "note": "The other results are listed elsewhere or left out.",
  "data": [
    {"binder": "B1", "values": [
      {"measurement": "glycan array binding signal (z-score)", "setting": "[1]", "result": -0.283},
      {"measurement": "glycan array binding signal (z-score)", "setting": "[2]", "result": -0.424},
      {"measurement": "glycan array binding signal (z-score)", "setting": "[3]", "result": -0.481},
      {"measurement": "glycan array binding signal (z-score)", "setting": "[4]", "result": -0.707},
      {"measurement": "glycan array binding signal (z-score)", "setting": "[5]", "result": -0.449},
      {"measurement": "glycan array binding signal (z-score)", "setting": "[6]", "result": 1.33},
      {"measurement": "glycan array binding signal (z-score)", "setting": "[7]", "result": -0.627},
      {"measurement": "glycan array binding signal (z-score)", "setting": "[8]", "result": 0.612},
      {"measurement": "glycan array binding signal (z-score)", "setting": "[9]", "result": 0.952},
      {"measurement": "glycan array binding signal (z-score)", "setting": "[10]", "result": 0.771},
      {"measurement": "glycan array binding signal (z-score)", "setting": "[11]", "result": -0.391},
      {"measurement": "glycan array binding signal (z-score)", "setting": "[12]", "result": -0.095},
      {"measurement": "glycan array binding signal (z-score)", "setting": "[13]", "result": -0.556},
      {"measurement": "glycan array binding signal (z-score)", "setting": "[14]", "result": -0.212},
      {"measurement": "glycan array binding signal (z-score)", "setting": "[15]", "result": 0.186},
      {"measurement": "glycan array binding signal (z-score)", "setting": "[16]", "result": -0.517},
      {"measurement": "glycan array binding signal (z-score)", "setting": "[17]", "result": -0.723},
      {"measurement": "glycan array binding signal (z-score)", "setting": "Gal(b1-3)GlcNAc6S", "result": 0.789},
      {"measurement": "glycan array binding signal (z-score)", "setting": "[18]", "result": 0.909},
      {"measurement": "glycan array binding signal (z-score)", "setting": "[19]", "result": 0.037},
      {"measurement": "glycan array binding signal (z-score)", "setting": "[20]", "result": -0.17},
      {"measurement": "glycan array binding signal (z-score)", "setting": "[21]", "result": -0.685},
      {"measurement": "glycan array binding signal (z-score)", "setting": "[22]", "result": -0.679},
      {"measurement": "glycan array binding signal (z-score)", "setting": "[23]", "result": 0.345},
      {"measurement": "glycan array binding signal (z-score)", "setting": "[24]", "result": -0.109},
      {"measurement": "glycan array binding signal (z-score)", "setting": "[25]", "result": -0.229},
      {"measurement": "glycan array binding signal (z-score)", "setting": "[26]", "result": -0.252},
      {"measurement": "glycan array binding signal (z-score)", "setting": "[27]", "result": 0.16},
      {"measurement": "glycan array binding signal (z-score)", "setting": "Gal(b1-4)Gal", "result": -0.473},
      {"measurement": "glycan array binding signal (z-score)", "setting": "[28]", "result": -0.319},
      {"measurement": "glycan array binding signal (z-score)", "setting": "[29]", "result": 0.185},
      {"measurement": "glycan array binding signal (z-score)", "setting": "Gal(b1-4)Glc", "result": -0.212},
      {"measurement": "glycan array binding signal (z-score)", "setting": "Gal(b1-4)Glc6S", "result": 1.06},
      {"measurement": "glycan array binding signal (z-score)", "setting": "Gal(b1-4)GlcNAc", "result": -0.181},
      {"measurement": "glycan array binding signal (z-score)", "setting": "[30]", "result": -0.378},
      {"measurement": "glycan array binding signal (z-score)", "setting": "Gal(b1-4)GlcNAc(b1-2)Man", "result": 1.46},
      {"measurement": "glycan array binding signal (z-score)", "setting": "[31]", "result": -0.356}
    ]}
  ]
}
